Some of the results follow.
Tests used:
Assay in all cases: log2 fold change, soluble protein after heating vs DMSO (PISA); higher = thermal stabilisation; K562 lysate, 10 uM; active = over 0.2 and 3.5 SD of the protein, either way, in both replicates (recomputed)
[1] = compound: CCCS(=O)(=O)Nc1ccc(F)c(C(=O)c2c[nH]c3ncc(-c4ccc(Cl)cc4)cc23)c1F [vemurafenib]
Outline: (§1)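 Thermal stability, expressed as log-two fold change relative to solvent controls, is given from duplicates. Crude K562 extract in PBS pH 7.4 with 1 mM MgCl2, at 1 mg/mL protein, was treated with 10 μM compound for 30 min and heated in aliquots for 3 min across 48°C-58°C. After pooling, adjustment to 0.5% NP-40 at 4°C and centrifugation at 21,000xg for 90 min, supernatant protein was measured by TMTpro 16plex LC-MS/MS with channel sums equalised.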

Sequences of proteins named here, by UniProt entry; tags and fusion partners are left off. A change or cut given only in a name is not applied to a line headed by its entry.
UniProt Q96QG7: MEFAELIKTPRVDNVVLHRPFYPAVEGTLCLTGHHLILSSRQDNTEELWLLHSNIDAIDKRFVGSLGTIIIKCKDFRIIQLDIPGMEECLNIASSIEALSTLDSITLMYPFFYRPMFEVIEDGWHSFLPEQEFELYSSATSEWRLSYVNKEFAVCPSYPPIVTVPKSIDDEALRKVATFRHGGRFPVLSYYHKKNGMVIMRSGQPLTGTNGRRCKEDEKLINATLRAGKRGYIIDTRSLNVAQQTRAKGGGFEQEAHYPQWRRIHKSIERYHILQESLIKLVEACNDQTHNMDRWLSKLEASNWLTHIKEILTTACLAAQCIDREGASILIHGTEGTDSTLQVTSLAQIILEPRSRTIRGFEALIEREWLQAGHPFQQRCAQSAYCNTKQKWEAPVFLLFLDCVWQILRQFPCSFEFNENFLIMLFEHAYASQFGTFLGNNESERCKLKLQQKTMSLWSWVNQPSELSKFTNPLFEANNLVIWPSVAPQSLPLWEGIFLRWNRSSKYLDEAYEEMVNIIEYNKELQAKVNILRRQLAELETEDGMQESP
UniProt Q9NZJ7, whole entry, looked up: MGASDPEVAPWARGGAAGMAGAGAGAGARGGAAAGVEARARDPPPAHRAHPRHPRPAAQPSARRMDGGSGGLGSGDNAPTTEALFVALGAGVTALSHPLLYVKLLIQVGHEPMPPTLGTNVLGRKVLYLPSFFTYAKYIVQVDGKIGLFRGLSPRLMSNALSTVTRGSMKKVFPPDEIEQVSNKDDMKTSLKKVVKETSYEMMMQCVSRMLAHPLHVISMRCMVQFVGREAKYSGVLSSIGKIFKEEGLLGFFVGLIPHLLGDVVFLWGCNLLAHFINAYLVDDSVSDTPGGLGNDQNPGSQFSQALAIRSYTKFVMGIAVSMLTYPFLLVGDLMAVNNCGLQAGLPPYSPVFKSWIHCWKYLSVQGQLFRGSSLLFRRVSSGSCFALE
UniProt Q86UE4: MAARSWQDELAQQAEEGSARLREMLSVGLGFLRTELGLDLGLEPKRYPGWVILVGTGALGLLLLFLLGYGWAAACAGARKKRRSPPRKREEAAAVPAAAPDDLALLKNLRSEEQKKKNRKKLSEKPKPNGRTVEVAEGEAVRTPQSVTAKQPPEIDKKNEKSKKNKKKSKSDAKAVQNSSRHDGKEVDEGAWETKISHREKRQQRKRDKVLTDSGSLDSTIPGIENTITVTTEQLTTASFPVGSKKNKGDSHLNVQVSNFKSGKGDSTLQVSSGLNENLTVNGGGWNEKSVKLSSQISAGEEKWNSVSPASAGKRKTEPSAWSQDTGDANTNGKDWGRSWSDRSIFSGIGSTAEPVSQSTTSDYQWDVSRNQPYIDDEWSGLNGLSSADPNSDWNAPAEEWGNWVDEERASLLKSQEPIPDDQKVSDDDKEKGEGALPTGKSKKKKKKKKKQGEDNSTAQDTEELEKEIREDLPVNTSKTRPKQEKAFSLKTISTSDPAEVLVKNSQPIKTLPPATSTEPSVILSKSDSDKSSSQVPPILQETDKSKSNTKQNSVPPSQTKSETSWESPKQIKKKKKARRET
UniProt P03886, whole entry, looked up: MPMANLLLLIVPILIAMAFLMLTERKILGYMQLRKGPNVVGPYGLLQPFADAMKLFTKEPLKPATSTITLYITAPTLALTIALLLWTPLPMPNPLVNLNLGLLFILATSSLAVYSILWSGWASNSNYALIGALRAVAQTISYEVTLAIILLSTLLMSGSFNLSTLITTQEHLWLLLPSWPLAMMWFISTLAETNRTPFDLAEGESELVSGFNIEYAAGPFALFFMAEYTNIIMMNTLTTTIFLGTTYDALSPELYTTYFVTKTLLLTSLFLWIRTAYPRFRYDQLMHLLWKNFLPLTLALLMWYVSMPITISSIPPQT
UniProt P58546, whole entry, looked up: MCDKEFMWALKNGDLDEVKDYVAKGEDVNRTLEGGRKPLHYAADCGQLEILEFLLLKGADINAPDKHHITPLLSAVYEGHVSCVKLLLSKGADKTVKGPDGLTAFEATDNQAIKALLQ
UniProt P42285: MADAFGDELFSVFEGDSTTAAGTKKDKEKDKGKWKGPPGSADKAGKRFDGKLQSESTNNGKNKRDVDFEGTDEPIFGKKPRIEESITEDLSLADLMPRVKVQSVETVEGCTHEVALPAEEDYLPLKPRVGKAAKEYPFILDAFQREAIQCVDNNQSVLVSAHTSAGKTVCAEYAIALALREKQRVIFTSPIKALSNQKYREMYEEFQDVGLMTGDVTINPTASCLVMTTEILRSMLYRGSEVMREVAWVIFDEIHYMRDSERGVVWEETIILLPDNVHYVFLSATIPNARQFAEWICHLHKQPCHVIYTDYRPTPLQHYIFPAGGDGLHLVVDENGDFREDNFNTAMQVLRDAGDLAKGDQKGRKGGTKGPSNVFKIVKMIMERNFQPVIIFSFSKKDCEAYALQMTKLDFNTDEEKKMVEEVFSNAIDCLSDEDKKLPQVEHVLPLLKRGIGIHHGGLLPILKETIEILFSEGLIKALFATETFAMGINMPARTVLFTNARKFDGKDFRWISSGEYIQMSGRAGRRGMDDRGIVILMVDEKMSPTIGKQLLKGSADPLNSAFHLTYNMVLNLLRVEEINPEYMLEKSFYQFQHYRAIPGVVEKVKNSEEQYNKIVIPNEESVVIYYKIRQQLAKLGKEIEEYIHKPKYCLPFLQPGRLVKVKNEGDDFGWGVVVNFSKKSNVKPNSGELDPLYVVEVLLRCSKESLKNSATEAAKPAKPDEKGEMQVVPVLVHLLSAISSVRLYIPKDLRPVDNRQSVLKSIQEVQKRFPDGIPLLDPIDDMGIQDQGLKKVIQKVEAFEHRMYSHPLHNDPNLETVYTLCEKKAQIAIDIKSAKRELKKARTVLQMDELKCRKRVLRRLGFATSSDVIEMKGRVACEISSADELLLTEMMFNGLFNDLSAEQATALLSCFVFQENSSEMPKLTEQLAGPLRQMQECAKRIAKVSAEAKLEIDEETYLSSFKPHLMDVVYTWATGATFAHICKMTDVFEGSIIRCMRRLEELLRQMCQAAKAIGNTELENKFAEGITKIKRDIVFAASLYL
UniProt O75431: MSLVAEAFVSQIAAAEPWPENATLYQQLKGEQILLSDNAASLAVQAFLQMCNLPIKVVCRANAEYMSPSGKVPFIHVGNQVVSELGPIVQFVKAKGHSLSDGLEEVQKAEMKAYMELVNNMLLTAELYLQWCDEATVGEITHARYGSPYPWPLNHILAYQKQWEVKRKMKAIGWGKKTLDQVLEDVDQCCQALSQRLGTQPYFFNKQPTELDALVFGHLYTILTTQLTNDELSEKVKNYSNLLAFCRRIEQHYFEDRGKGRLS
UniProt Q9HD23: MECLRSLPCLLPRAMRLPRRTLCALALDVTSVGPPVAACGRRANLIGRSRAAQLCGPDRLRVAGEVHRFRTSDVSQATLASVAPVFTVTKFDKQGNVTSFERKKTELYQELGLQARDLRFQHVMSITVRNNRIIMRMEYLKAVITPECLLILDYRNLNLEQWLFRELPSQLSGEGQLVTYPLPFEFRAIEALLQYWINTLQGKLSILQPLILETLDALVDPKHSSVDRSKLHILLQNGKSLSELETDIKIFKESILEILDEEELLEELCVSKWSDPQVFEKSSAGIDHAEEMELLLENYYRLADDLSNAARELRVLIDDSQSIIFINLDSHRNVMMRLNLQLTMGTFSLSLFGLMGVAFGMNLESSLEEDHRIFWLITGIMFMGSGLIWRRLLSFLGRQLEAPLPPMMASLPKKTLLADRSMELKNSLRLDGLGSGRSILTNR

[2] = compound: CCCS(=O)(=O)Nc1ccc(F)c(C(=O)c2c[nH]c3ncc(Cl)cc23)c1F
Outline: as §1

[3] = compound: CCN(CCCOc1ccc2c(Nc3cc(CC(=O)Nc4cccc(F)c4)[nH]n3)ncnc2c1)CCOP(=O)(O)O [barasertib]
Outline: as §1

[4] = compound: CC[C@@H]1C(=O)N(C)c2cnc(Nc3ccc(C(=O)NC4CCN(C)CC4)cc3OC)nc2N1C1CCCC1
Outline: as §1

[5] = compound: CC[C@@H]1C(=O)N(C)c2cnc(Nc3ccc(C(=O)N[C@H]4CC[C@H](N5CCN(CC6CC6)CC5)CC4)cc3OC)nc2N1C(C)C [volasertib]
Outline: as §1

[6] = compound: CCn1c(C(=O)N(C2CC2)C2CC2)cc2c3c(ncn3C)c(Nc3cc(C)n(C)n3)nc21
Outline: as §1

[7] = compound: CCn1cc(-c2ccnc3[nH]c(-c4cccc(CN(C)C)c4)cc23)c(-c2ccc(NC(=O)N(C)C)cc2)n1
Outline: as §1

[8] = compound: CN1CCC(CNc2ccc3ncc(-c4cccc(OC(F)(F)F)c4)n3n2)CC1
Outline: as §1

[9] = compound: CN1CCN(CCOc2cc(OC3CCOCC3)c3c(Nc4c(Cl)ccc5c4OCO5)ncnc3c2)CC1 [saracatinib]
Outline: as §1

[10] = compound: CN1CCN(c2nc(C3=C(c4c[nH]c5ccccc45)C(=O)NC3=O)c3ccccc3n2)CC1 [sotrastaurin]
Outline: as §1

[11] = compound: CN1CC[C@H](c2c(O)cc(O)c3c(=O)cc(-c4ccccc4Cl)oc23)[C@H](O)C1 [alvocidib]
Outline: as §1

[12] = compound: CN1CCc2c(c3ccccc3n2Cc2ccc(C(=O)NO)cc2)C1 [Tubastatin A]
Outline: as §1

[13] = compound: CNC(=O)C1=CC=CC=C1NC2=NC(=NC=C2Cl)NC3=C(C=C(C=C3)N4CCOCC4)OC
Outline: as §1

[14] = compound: CNC(=O)c1ccc(Nc2ncc(C(F)(F)F)c(NCc3nccnc3N(C)S(C)(=O)=O)n2)cc1 [defactinib]
Outline: as §1

[15] = compound: CNc1nc(-c2ccc3c(N)n[nH]c3c2)cc(N2C[C@@H](C(=O)NC3CCCCC3)CC[C@H]2C)n1
Outline: as §1

[16] = compound: COC(=O)N[C@@H](C)CNc1nccc(-c2cn(C(C)C)nc2-c2cc(Cl)cc(NS(C)(=O)=O)c2F)n1 [encorafenib]
Outline: as §1

[17] = compound: COC(=O)[C@H](CCSC)NC(=O)C1=C(C=C(C=C1)NC[C@H](CS)N)C2=CC=CC=C2
Outline: as §1

[18] = compound: COc1cc(Nc2ncc3c(n2)-c2ccc(Cl)cc2C(c2c(F)cccc2OC)=NC3)ccc1C(=O)O [alisertib]
Outline: as §1

[19] = compound: COc1cc2nc(-c3cc(F)ccc3O)nc(N[C@@H]3CNC[C@H]3C(C)(C)O)c2cc1OC
Outline: as §1

[20] = compound: COc1cc2ncnc(Nc3ccc(F)c(Cl)c3)c2cc1OCCCN1CCOCC1 [gefitinib]
Outline: as §1

Measured: log2 fold change

MRPS12 (UniProt O15235)
inactive: [1] 0.062 | [2] 0.035 | [3] 0.003 | [4] 0.045 | [5] 0.011 | [6] 0.001 | [7] -0.038 | [8] 0.001 | [9] 0.016 | [10] 0.028 | [11] -0.015 | [12] 0.026 | [13] -0.021 | [14] 0.015 | [15] 0.067 | [16] 0.011 | [17] -0.168 | [18] -0.027 | [19] -0.053 | [20] -0.032

MRPL47 (UniProt Q9HD33)
inactive: [1] -0.01 | [2] 0.02 | [3] 0.07 | [4] -0.016 | [5] -0.099 | [6] 0.068 | [7] 0.035 | [8] -0.037 | [9] -0.007 | [10] 0.041 | [11] 0.018 | [12] -0.057 | [13] 0.038 | [14] 0.026 | [15] 0.007 | [16] 0.067 | [17] -0.066 | [18] -0.06 | [19] -0.075 | [20] 0.269

MRPL40 (UniProt Q9NQ50)
inactive: [1] -0.039 | [2] 0.003 | [3] -0.033 | [4] 0.147 | [5] 0.032 | [6] -0.01 | [7] 0.031 | [8] -0.046 | [9] 0.019 | [10] 0.014 | [11] 0.122 | [12] 0.048 | [13] 0.068 | [14] 0.069 | [15] 0.109 | [16] -0.003 | [17] 0.074 | [18] 0.023 | [19] -0.026 | [20] -0.014

MTMR9 (UniProt Q96QG7)
inactive: [1] -0.039 | [2] 0.025 | [3] -0.004 | [4] 0.064 | [5] -0.045 | [6] -0.036 | [7] -0.052 | [8] 0.052 | [9] 0.029 | [10] 0.048 | [11] 0 | [12] 0.031 | [13] 0.016 | [14] 0.037 | [15] 0.071 | [16] 0.024 | [17] 0.047 | [18] -0.025 | [19] 0.055 | [20] 0.027

MRPS33 (UniProt Q9Y291)
inactive: [1] -0.005 | [2] 0.016 | [3] -0.025 | [4] -0.047 | [5] -0.028 | [6] -0.007 | [7] 0.035 | [8] -0.044 | [9] 0.043 | [10] -0.011 | [11] 0.068 | [12] 0.047 | [13] 0.012 | [14] 0.065 | [15] -0.121 | [16] -0.054 | [17] 0.064 | [18] 0.042 | [19] -0.024 | [20] -0.097

MTCH1 (UniProt Q9NZJ7)
inactive: [1] 0.07 | [2] 0.003 | [3] -0.015 | [4] 0.022 | [5] 0.027 | [6] -0.047 | [7] -0.208 | [8] 0.07 | [9] 0.001 | [10] -0.022 | [11] -0.055 | [12] 0.044 | [13] 0.063 | [14] -0.031 | [15] -0.003 | [16] -0.042 | [17] 0.025 | [18] -0.012 | [19] -0.008 | [20] -0.017

MRPL51 (UniProt Q4U2R6)
inactive: [1] 0.032 | [2] 0.028 | [3] 0 | [4] -0.044 | [5] 0.022 | [6] 0.038 | [7] -0.309 | [8] 0.16 | [9] 0.02 | [10] 0.008 | [11] -0.039 | [12] -0.018 | [13] 0.016 | [14] 0.198 | [15] -0.002 | [16] 0.088 | [17] -0.208 | [18] -0.005 | [19] -0.005 | [20] -0.044

MTDH (UniProt Q86UE4)
inactive: [1] 0.009 | [2] -0.001 | [3] -0.028 | [4] 0.029 | [5] 0.017 | [6] -0.022 | [7] -0.043 | [8] 0.049 | [9] -0.001 | [10] 0.013 | [11] -0.027 | [12] 0.052 | [13] -0.006 | [14] 0.015 | [15] 0.035 | [16] -0.015 | [17] 0.009 | [18] -0.013 | [19] 0.009 | [20] -0.019

MRPS31 (UniProt Q92665)
inactive: [1] 0.043 | [2] -0.001 | [3] -0.011 | [4] 0.041 | [5] -0.004 | [6] -0.026 | [7] -0.046 | [8] 0.034 | [9] 0.014 | [10] 0.021 | [11] -0.023 | [12] 0.002 | [13] -0.029 | [14] 0.024 | [15] 0.018 | [16] 0.006 | [17] -0.02 | [18] 0.007 | [19] -0.017 | [20] -0.014

MRPL42 (UniProt Q9Y6G3)
inactive: [1] -0.018 | [2] 0.007 | [3] -0.057 | [4] -0.119 | [5] 0.015 | [6] -0.004 | [7] 0.015 | [8] 0.015 | [9] 0.009 | [10] 0.008 | [11] -0.044 | [12] 0.062 | [13] 0.23 | [14] -0.111 | [15] 0.057 | [16] 0.102 | [17] 0.248 | [18] -0.007 | [19] -0.028 | [20] -0.008

MRPS30 (UniProt Q9NP92)
inactive: [1] 0.031 | [2] 0.047 | [3] 0.072 | [4] -0.019 | [5] -0.056 | [6] -0.051 | [7] -0.077 | [8] 0.046 | [9] 0.023 | [10] 0.006 | [11] -0.191 | [12] -0.121 | [13] -0.017 | [14] 0.162 | [15] 0.02 | [16] 0.013 | [17] 0.044 | [18] 0.05 | [19] -0.003 | [20] -0.055

Copied from the entries so far (2 entries):
MTCH1 (UniProt Q9NZJ7)
inactive: [1] 0.07 | [2] 0.003 | [3] -0.015 | [4] 0.022 | [5] 0.027 | [6] -0.047 | [7] -0.208 | [8] 0.07 | [9] 0.001 | [10] -0.022 | [11] -0.055 | [12] 0.044 | [13] 0.063 | [14] -0.031 | [15] -0.003 | [16] -0.042 | [17] 0.025 | [18] -0.012 | [19] -0.008 | [20] -0.017

MRPL51 (UniProt Q4U2R6)
inactive: [1] 0.032 | [2] 0.028 | [3] 0 | [4] -0.044 | [5] 0.022 | [6] 0.038 | [7] -0.309 | [8] 0.16 | [9] 0.02 | [10] 0.008 | [11] -0.039 | [12] -0.018 | [13] 0.016 | [14] 0.198 | [15] -0.002 | [16] 0.088 | [17] -0.208 | [18] -0.005 | [19] -0.005 | [20] -0.044

(further entries)

MT-ND1 (UniProt P03886)
inactive: [1] -0.074 | [2] 0.012 | [3] 0.056 | [4] -0.068 | [5] -0.04 | [6] -0.096 | [7] -0.355 | [8] 0.066 | [9] 0.075 | [10] 0.038 | [11] -0.149 | [12] -0.037 | [13] 0.043 | [14] 0.081 | [15] 0.014 | [16] 0.046 | [17] -0.051 | [18] 0.032 | [19] -0.073 | [20] 0.087

MTPN (UniProt P58546)
inactive: [1] -0.034 | [2] -0.018 | [3] 0.119 | [4] 0.037 | [5] 0.096 | [6] 0.087 | [7] 0.156 | [8] -0.171 | [9] 0.007 | [10] -0.043 | [11] 0.267 | [12] 0.081 | [13] 0.068 | [14] 0.134 | [15] 0.014 | [16] -0.023 | [17] 0.014 | [18] -0.008 | [19] -0.031 | [20] -0.142

MTREX (UniProt P42285)
inactive: [1] -0.003 | [2] 0.001 | [3] 0.018 | [4] -0.009 | [5] -0.012 | [6] -0.001 | [7] -0.025 | [8] 0.032 | [9] 0.009 | [10] 0 | [11] -0.007 | [12] -0.005 | [13] -0.001 | [14] -0.004 | [15] -0.002 | [16] 0.003 | [17] 0.027 | [18] 0.003 | [19] 0.006 | [20] 0.005

MTX2 (UniProt O75431)
inactive: [1] -0.038 | [2] -0.003 | [3] 0.052 | [4] 0.024 | [5] -0.019 | [6] 0 | [7] 0.097 | [8] -0.004 | [9] 0.047 | [10] -0.059 | [11] 0.059 | [12] -0.016 | [13] 0.015 | [14] 0.008 | [15] 0.049 | [16] -0.012 | [17] -0.047 | [18] 0.007 | [19] -0.016 | [20] -0.02

MRS2 (UniProt Q9HD23)
inactive: [1] -0.028 | [2] -0.005 | [3] 0.01 | [4] -0.026 | [5] 0.001 | [6] 0.015 | [7] 0.023 | [8] 0.074 | [9] 0.002 | [10] 0.037 | [11] -0.017 | [12] 0.005 | [13] 0.012 | [14] -0.013 | [15] -0.039 | [16] 0.022 | [17] -0.062 | [18] -0.022 | [19] -0.004 | [20] 0.024

Reference: the supplement of paper PMC10849652
